Experimental data from the supplement of paper PMC11006884.
The entries are a selection whose mix differs from that of the whole data set.

Sequences of proteins named here, by UniProt entry; tags and fusion partners are left off. A change or cut given only in a name is not applied to a line headed by its entry.
UniProt Q96HA7: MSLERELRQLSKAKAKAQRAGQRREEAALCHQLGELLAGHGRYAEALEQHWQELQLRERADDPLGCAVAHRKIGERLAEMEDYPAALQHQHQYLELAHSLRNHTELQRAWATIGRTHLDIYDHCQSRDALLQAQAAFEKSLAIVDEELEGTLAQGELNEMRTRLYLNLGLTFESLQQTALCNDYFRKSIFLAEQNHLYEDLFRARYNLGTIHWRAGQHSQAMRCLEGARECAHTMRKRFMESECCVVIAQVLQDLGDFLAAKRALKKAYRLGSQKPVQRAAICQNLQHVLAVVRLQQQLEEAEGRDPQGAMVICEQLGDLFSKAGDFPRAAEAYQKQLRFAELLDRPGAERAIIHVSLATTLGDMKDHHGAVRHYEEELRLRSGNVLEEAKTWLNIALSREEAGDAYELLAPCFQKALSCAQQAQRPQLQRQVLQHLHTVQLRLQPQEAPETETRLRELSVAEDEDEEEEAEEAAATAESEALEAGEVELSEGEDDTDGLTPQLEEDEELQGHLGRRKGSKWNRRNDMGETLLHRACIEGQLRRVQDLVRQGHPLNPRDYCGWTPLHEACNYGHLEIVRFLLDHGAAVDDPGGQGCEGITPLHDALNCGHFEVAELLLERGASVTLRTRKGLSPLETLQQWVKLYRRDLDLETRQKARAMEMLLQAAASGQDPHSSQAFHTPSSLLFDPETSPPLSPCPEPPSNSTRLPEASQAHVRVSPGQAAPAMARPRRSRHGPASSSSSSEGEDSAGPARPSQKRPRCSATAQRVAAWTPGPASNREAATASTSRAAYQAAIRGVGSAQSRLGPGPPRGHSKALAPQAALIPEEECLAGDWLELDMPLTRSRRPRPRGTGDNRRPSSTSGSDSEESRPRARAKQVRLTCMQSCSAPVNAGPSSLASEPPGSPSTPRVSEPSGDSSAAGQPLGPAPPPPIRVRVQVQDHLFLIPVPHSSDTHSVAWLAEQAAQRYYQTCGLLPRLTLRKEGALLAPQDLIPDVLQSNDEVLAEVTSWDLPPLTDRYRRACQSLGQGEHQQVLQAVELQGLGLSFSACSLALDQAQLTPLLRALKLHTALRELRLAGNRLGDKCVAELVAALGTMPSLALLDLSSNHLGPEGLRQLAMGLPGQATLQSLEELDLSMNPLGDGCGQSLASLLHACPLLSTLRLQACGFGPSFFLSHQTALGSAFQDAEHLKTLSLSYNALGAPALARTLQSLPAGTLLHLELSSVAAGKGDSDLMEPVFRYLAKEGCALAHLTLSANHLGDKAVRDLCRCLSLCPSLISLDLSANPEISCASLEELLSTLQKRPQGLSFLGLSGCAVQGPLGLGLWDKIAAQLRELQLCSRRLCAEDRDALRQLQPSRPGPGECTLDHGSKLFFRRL
UniProt Q92841: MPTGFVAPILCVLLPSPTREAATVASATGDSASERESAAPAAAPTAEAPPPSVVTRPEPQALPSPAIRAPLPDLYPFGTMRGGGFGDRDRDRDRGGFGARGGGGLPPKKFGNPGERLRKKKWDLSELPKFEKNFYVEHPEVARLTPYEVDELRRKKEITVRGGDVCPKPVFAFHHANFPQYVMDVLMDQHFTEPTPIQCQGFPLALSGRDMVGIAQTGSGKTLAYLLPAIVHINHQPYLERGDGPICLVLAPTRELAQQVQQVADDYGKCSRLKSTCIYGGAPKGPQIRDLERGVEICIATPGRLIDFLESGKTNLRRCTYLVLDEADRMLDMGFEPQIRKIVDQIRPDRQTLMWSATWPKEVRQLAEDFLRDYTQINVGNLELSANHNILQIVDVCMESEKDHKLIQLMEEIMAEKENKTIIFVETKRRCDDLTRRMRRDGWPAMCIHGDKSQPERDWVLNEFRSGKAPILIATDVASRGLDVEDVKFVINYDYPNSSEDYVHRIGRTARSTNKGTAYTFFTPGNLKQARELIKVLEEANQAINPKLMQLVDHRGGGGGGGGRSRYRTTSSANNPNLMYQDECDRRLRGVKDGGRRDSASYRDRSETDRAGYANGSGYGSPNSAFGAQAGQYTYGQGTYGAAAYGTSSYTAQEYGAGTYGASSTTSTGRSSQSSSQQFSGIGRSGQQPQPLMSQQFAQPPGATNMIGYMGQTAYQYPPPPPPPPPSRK
UniProt Q96FK6: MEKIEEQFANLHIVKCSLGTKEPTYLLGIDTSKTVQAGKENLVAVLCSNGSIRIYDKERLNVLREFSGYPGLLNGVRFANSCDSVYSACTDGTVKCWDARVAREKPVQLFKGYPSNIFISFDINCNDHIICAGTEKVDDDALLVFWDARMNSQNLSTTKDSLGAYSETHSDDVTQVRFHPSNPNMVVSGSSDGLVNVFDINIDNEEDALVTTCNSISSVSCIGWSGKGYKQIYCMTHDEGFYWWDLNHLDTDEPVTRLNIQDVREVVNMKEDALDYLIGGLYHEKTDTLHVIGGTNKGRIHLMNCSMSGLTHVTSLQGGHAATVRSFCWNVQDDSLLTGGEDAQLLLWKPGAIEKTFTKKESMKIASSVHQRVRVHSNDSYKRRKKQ
UniProt Q92598: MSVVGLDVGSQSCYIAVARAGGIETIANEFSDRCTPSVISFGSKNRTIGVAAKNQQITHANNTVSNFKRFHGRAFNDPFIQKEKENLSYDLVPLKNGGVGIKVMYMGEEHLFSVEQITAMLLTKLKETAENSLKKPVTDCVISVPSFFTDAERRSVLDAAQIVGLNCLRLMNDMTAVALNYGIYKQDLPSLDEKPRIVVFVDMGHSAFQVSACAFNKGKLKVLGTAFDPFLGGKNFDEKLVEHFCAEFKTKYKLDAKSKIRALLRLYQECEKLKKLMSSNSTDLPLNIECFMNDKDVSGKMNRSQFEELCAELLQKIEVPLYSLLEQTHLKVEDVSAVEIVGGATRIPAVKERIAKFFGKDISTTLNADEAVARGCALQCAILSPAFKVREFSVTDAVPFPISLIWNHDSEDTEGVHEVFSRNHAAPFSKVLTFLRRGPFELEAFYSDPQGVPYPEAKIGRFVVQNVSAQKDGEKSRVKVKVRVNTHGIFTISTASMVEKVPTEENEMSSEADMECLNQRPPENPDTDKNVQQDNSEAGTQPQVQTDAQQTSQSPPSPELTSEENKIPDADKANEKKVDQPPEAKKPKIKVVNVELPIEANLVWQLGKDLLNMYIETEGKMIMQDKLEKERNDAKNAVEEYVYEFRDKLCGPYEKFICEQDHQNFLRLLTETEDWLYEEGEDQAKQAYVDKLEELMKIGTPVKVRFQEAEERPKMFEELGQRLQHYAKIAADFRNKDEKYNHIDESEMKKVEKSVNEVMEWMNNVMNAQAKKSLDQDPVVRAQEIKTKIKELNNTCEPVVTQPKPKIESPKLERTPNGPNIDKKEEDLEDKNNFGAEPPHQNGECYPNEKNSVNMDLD
UniProt Q96EM0: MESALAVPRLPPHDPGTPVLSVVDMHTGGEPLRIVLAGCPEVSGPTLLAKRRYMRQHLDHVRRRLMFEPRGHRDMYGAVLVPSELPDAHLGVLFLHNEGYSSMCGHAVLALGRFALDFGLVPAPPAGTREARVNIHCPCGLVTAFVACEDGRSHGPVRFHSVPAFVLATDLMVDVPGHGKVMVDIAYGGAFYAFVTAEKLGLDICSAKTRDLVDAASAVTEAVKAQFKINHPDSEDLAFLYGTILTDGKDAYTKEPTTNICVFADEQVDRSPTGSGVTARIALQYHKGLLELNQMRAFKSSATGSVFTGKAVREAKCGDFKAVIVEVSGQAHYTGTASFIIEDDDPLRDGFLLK
UniProt Q92804: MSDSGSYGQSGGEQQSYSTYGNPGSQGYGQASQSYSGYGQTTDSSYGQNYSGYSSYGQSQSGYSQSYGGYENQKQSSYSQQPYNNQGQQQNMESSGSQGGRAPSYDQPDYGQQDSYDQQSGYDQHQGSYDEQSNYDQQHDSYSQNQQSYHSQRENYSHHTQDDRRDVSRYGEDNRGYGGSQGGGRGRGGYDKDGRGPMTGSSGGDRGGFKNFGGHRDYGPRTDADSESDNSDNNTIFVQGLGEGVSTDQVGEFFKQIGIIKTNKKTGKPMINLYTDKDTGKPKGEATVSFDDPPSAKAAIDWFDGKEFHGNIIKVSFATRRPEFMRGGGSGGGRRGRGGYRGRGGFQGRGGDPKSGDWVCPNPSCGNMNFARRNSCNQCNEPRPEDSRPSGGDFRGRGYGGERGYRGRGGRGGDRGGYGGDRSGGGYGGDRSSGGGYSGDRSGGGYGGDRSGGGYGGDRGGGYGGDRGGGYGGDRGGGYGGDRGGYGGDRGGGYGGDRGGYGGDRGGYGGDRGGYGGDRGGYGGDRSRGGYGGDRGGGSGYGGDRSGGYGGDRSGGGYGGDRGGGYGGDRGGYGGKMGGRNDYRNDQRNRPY
UniProt Q92688: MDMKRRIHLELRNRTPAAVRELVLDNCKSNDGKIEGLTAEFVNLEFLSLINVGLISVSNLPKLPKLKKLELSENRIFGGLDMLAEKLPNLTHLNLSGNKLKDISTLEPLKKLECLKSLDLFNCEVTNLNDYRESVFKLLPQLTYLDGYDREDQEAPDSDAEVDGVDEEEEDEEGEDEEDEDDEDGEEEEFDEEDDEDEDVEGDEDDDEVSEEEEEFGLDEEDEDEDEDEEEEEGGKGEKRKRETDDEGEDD
UniProt Q96F45: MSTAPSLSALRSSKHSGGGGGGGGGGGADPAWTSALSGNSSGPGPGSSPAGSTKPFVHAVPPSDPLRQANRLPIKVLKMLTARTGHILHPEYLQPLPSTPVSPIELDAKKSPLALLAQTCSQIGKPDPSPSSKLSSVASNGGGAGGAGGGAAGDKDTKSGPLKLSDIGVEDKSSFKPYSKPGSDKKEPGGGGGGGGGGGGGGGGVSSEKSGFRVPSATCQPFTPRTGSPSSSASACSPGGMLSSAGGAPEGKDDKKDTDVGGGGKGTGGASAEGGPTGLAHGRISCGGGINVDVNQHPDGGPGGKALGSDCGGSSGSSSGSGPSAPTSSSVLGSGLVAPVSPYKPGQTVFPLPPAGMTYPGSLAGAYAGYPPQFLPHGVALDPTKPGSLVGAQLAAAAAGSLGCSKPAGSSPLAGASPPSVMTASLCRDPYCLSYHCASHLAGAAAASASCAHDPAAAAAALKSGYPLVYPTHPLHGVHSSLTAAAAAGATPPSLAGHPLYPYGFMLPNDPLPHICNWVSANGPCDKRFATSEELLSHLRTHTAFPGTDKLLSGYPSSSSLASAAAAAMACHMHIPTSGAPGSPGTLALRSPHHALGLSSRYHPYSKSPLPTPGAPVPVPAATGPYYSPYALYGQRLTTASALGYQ
UniProt Q92667: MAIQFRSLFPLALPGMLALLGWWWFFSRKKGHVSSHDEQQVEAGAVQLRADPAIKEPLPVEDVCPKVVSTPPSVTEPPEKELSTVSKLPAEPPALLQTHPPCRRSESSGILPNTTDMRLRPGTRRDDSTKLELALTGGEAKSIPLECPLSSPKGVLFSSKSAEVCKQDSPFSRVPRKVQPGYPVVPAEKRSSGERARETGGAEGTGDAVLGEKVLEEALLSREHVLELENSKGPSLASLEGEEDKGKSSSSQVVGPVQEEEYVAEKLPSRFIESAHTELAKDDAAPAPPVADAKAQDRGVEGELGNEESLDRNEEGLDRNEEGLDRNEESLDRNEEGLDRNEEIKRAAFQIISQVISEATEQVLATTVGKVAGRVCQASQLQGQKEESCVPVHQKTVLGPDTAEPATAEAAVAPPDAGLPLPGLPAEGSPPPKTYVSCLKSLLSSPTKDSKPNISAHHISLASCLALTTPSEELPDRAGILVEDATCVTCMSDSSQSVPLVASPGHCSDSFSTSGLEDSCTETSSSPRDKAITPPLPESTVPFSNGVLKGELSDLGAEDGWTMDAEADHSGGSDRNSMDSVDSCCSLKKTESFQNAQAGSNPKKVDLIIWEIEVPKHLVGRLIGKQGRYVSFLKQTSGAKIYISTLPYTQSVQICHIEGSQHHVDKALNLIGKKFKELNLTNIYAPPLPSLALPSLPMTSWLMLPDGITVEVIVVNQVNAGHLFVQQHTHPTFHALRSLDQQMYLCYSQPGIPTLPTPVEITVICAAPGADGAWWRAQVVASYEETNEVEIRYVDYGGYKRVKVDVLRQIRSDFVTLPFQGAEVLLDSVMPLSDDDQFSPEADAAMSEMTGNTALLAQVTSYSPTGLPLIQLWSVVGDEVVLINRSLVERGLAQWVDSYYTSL
UniProt Q96CX2: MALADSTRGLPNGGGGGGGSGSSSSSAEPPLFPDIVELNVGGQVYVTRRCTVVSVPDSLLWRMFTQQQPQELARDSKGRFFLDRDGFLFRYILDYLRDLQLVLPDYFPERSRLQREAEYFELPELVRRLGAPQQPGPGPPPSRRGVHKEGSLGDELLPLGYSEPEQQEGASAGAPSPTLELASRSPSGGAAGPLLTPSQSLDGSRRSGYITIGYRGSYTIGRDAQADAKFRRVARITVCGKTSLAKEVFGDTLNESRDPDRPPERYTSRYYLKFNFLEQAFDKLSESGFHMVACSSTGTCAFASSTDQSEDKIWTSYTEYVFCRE

These targets were tested with COC(=O)C#Cc1ccccc1 [methyl 3-phenylpropiolate] (assay: log2 ratio of iodoacetamide-alkyne labeling of the cysteine site, DMSO over compound (competition); higher = stronger covalent engagement of the cysteine by the compound, active = 1 or more). Conditions: 500 µM; treatment time 1 h; system: HEK293T cell lysate.
In short: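 HEK293T lysate (2 mg/mL) was incubated with electrophile (500 µM) or vehicle for 1 h at ambient temperature and then with iodoacetamide alkyne for 1 h. Labelled proteins were clicked to sCIP-TMT reagents, pooled, digested, enriched on streptavidin and measured by Orbitrap Eclipse LC-MS/MS with FAIMS, with FragPipe quantification. The per-cysteine log2 competition ratio is mean control-channel reporter intensity over mean compound-channel reporter intensity. Across three replicates with duplicate channels, cysteines quantified in only one replicate were excluded.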

Target | log2 ratio of iodoacetamide-alkyne labeling
UniProt Q92599_C80 | inactive: 0.199
TONSL C762 (UniProt Q96HA7) | inactive: 0.961
SYMPK C859 (UniProt Q92797) | inactive: 0.383
UniProt Q92841_C298 | inactive: 0.188
DHX38 C20 (UniProt Q92620) | active: 1.36
WDR89 C82 (UniProt Q96FK6) | inactive: 0.231
UniProt Q93015_C250 | inactive: 0.513
USP7 C961 (UniProt Q93009) | inactive: 0.169
UniProt Q92841_C247 | inactive: 0.0183
HSPH1 C290 (UniProt Q92598) | inactive: 0.152
TMCO6 C57 (UniProt Q96DC7) | inactive: 0.394
DCUN1D4 C253 (UniProt Q92564) | inactive: 0.287
UniProt Q96BN8_C347 | inactive: 0.256
UniProt Q96EM0_C39 | inactive: 0.492
ARHGEF2 C715 (UniProt Q92974) | inactive: 0.339
UPF1 C531 (UniProt Q92900) | inactive: -0.0182
TAF15 C365 (UniProt Q92804) | inactive: -0.216
TNPO1 C297 (UniProt Q92973) | inactive: 0.00637
AKT1S1 C44 (UniProt Q96B36) | inactive: 0.465

Target | log2 ratio of iodoacetamide-alkyne labeling
ANP32B C27 (UniProt Q92688) | inactive: 0.262
PTCD3 C642 (UniProt Q96EY7) | inactive: 0.535
RNF31 C504 (UniProt Q96EP0) | inactive: 0.285
ZNF503 C219 (UniProt Q96F45) | inactive: 0.598
EDC3 C137 (UniProt Q96F86) | active: 1.09
UniProt Q96HE7_C241 | inactive: 0.0793
MRPL24 C190 (UniProt Q96A35) | inactive: -0.00775
USP9X C673 (UniProt Q93008) | inactive: 0.212
AKAP1 C389 (UniProt Q92667) | active: 1.15
SMARCC1 C119 (UniProt Q92922) | inactive: 0.206
MMAB C132 (UniProt Q96EY8) | inactive: 0.488
CCDC47 C214 (UniProt Q96A33) | inactive: 0.446
NMD3 C214 (UniProt Q96D46) | inactive: -0.00458
POM121 C217 (UniProt Q96HA1) | inactive: 0.605
RPL36AL C15 (UniProt Q969Q0) | inactive: -0.000384
UniProt Q96EY5_C231 | inactive: 0.938
KCTD12 C50 (UniProt Q96CX2) | inactive: 0.429
TUBGCP3 C274 (UniProt Q96CW5) | inactive: 0.436

An excerpt of these results, in markdown.

| Target | log2 ratio of iodoacetamide-alkyne labeling |
| --- | --- |
| SMARCC1 C119 (UniProt Q92922) | inactive: 0.206 |
| POM121 C217 (UniProt Q96HA1) | inactive: 0.605 |
